Measurements reported in publication PMC10640585, “The E3 ligase Riplet promotes RIG-I signaling independent of RIG-I oligomerization” (Nature Communications, 2023).
No constants are given. Whether binding was seen depends on the method and setting. Some entries that bind do so weakly or less than the wild type.

Target: T1, Riplet, full-length (Riplet-FL) (human), Q8IUD6
T1 chain: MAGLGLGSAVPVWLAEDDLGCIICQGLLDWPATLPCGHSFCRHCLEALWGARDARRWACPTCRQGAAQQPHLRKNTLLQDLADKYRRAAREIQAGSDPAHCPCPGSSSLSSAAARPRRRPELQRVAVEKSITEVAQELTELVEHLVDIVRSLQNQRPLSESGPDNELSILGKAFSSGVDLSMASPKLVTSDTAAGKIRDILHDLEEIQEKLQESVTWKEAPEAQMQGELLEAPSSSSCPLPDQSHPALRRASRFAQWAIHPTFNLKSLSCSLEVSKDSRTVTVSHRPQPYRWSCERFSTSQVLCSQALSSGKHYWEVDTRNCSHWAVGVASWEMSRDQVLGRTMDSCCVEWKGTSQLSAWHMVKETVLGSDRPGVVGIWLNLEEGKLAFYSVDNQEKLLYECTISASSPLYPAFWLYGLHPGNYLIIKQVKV
Assay: cryo-EM structure; RIG-I, p3dsRNA24 and Riplet mixed 8:1:8, complex isolated on Superdex 200 (25 mM HEPES pH 7.4, 200 mM NaCl, 5 mM BME); 2:1:2 RIG-I:RNA:Riplet particles; three maps at 3.2, 4.0 and 3.9 Å; both purified
Details: remark: other sources report otherwise

binding: binds
B1: Riplet, full-length (Riplet-FL), Q8IUD6 1-432 (enzyme)
chain: MAGLGLGSAVPVWLAEDDLGCIICQGLLDWPATLPCGHSFCRHCLEALWGARDARRWACPTCRQGAAQQPHLRKNTLLQDLADKYRRAAREIQAGSDPAHCPCPGSSSLSSAAARPRRRPELQRVAVEKSITEVAQELTELVEHLVDIVRSLQNQRPLSESGPDNELSILGKAFSSGVDLSMASPKLVTSDTAAGKIRDILHDLEEIQEKLQESVTWKEAPEAQMQGELLEAPSSSSCPLPDQSHPALRRASRFAQWAIHPTFNLKSLSCSLEVSKDSRTVTVSHRPQPYRWSCERFSTSQVLCSQALSSGKHYWEVDTRNCSHWAVGVASWEMSRDQVLGRTMDSCCVEWKGTSQLSAWHMVKETVLGSDRPGVVGIWLNLEEGKLAFYSVDNQEKLLYECTISASSPLYPAFWLYGLHPGNYLIIKQVKV
